Results taken from patent US9597393B2, “Synthetic toll-like receptor-4 (TLR-4) agonist peptides” (AV Therapeutics, Inc., priority 2012, dated 2017).
“Also recorded” adds a separate entry of the source. Not every detail of the peptide structures is certain; ends, links or a residue may be inferred. Ends that are not written are not given here.

Protein sequences, listed by entry. Tags and fused reporters are not part of them. Residues count along the entry.
UniProt O00206, 24-839: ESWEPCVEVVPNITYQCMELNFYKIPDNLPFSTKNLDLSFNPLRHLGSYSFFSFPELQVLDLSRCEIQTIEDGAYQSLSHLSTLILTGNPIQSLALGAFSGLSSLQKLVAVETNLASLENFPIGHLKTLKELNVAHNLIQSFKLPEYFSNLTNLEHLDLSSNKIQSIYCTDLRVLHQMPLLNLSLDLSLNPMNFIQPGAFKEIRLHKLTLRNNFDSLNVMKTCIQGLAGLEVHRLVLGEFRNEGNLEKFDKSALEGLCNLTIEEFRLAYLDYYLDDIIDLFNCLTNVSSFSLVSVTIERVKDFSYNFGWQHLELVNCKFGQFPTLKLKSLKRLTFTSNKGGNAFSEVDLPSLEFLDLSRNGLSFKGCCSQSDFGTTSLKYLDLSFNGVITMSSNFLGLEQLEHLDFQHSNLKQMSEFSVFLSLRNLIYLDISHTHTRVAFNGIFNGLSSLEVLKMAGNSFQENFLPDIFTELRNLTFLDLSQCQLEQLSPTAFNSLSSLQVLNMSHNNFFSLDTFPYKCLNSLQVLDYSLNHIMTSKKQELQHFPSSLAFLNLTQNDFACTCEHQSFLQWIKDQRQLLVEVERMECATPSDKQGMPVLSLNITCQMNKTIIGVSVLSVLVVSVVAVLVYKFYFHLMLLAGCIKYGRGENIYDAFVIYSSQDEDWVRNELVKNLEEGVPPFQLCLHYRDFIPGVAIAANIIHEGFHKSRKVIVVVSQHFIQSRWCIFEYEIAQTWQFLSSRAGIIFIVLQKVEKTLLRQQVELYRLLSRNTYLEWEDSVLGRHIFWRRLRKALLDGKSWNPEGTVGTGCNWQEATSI

How the values were obtained:
TLR-4 = target: T1, TLR-4 (Homo sapiens, UniProt O00206); assay: NF-κB activation (SEAP reporter) in HEK-BLUE-4 cells; type: cell-based; conditions: peptide 1, 5 and 10 μg/ml
T1 construct: host or cells: HEK-BLUE-4 (transgenic HEK293)
Procedure: FIG. 2—LPS peptide mimics activate NF-κB in HEK-BLUE™-4. LPS peptide mimics were dissolved in endotoxin free water and added to 96-well plates at three concentrations; 1 μg/ml (black bar), 5 μg/ml (gray bar), and 10 μg/ml (white bar). HEK-BLUE™4 were then added to each well at a concentration of 5×10^4 cells per well in complete media. The supernatant was then harvested after 24 h and assayed for alkaline phosphatase secretion indicating activation of NF-κB. NF-κB activation is represented in FIG. 2A for peptides RS01-RS07 and in FIG. 2B for peptides RS08-RS12. LPS was used as a positive control in assaying all peptides for NF-κB activation. Absorbance was taken at 630 nm. Each experiment was repeated three times with similar results observed. […]
The twelve peptides were assayed for their ability to bind to TLR-4 and activate NF-κB using a transgenic HEK293 cell line known as HEK-BLUE™-4. […] Therefore, NF-κB activation leads to SEAP secretion, which is detected by an alkaline phosphatase substrate in cell culture media.
The LPS peptide mimics were dissolved in endotoxin free water (HyClone) at a concentration of 1 μg/ml with the exception of peptide 4 which was dissolved in a solution of 1% DMSO made in endotoxin free water at 1 μg/ml concentration. […] After a noticeable color change, the absorbance was taken at 630 nm using the microplate reader (Bio-Rad). […]

RAW264.7 cells = assay: Inflammatory cytokine secretion from RAW264.7 macrophages (antibody array); type: cell-based, mouse; conditions: 24 h
Procedure: FIG. 5—RAW264.7 secretes inflammatory cytokines in response to RS01 and RS09. RAW264.7 cells were seeded at a density of 1×10^6 cells per well of a six well plate followed by addition of either […] (FIG. 5A) or RS09 (FIG. 5B) and incubated for 24 h after which the culture media was collected. LPS was used as a positive control for both RS01 and RS09. Culture media was then analyzed for specific cytokines using an antibody array kit. […] Each cytokine is represented as an IDV value which was calculated by comparing the density of each spot with respect to the density of the internal positive controls. The antibody array represents a qualitative comparison of each cytokine and is […]. Each experiment was repeated three times with similar results observed. […]
RAW264. […] The blots were then developed using ECL (Pierce) and detected on HyBlot CL™ autoradiography film (Denville Scientific). […]
Although the values obtained for each cytokine are not quantitative but rather qualitative, they do show an increase in release of inflammatory cytokines. These values were calculated and presented as IDV, which is the density of each spot compared to the density of the internal positive controls present on each membrane. Values for the various cytokines and chemokines detected are presented in FIG. 5A for RS01 and FIG. 5B for RS09. […]

NF-κB [1] = assay: NF-κB nuclear translocation Western blot in RAW264.7; type: cell-based
NF-κB [2] = assay: NF-κB nuclear translocation Western blot in HEK-BLUE-4; type: cell-based; conditions: 5 μg/ml, 15-120 min
X-15 specific antibodies = assay: In vivo adjuvant study: X-15 specific serum antibodies after X-15-KLH vaccination; conditions: BALB/c mice; X-15-KLH s.c. day 0 and 14; adjuvant 25 μg; day 28
NF-κB [3] = assay: Fluorescence microscopy of NF-κB nuclear translocation in RAW264.7; type: cell-based; conditions: 5 μg/ml, 30 min
Procedure: FIG. 4—Fluorescence microscopy of NF-κB nuclear translocation. RAW264.7 macrophages were seeded in 8 well chamber slides at a density of 2×10^4 cells per well and stimulated with 5 μg/ml of either RS01 or RS09. After 30 min incubation, cells were fixed (4% para-formaldehyde), permeabilized (0.2% TRITON® X-100), blocked (10% goat serum/1% BSA), and incubated with anti-NF-κB followed by DAPI staining of nuclei. The stained cells were visualized using the Axiovert 200 M microscope with a 40× magnification. NF-KB (green) was more diffusely spread throughout the cytoplasm in control cells but appeared more circular in RS01, RS09, and LPS treated cells.
HEK-BLUE™-4 and RAW264.7 cells were seeded in 8-chamber slides (BD Biosciences, Bedford, Mass.) at a density of 2×10^4 cells per well. Cells were allowed to adhere at 37° C. over night after which the cells were stimulated with LPS peptide mimics at various time points and subsequently processed for immunofluorescence. The cells were fixed with a 4% paraformaldehyde/PBS solution, followed by permeabilization with 0.2% TRITON® X-100, and blocked using a solution of 0.1% TRITON® X-100, 1% BSA, and 10% goat serum. […]

NF-κB [4] = assay: NF-κB nuclear translocation Western blot in non-TLR-4 expressing HEK293 (negative control cells); type: cell-based; conditions: HEK293 lacking TLR-4
Procedure: FIG. 3—LPS peptide mimics lead to NF-κB nuclear translocation. Nuclear translocation studies of NF-κB were performed by Western blot analysis on both RAW264.7 (FIG. 3A), HEK-BLUE™-4 (FIG. 3B), and HEK293 (FIG. 3C) cells. Cells were stimulated with peptide, either RS01 or RS09, at a concentration of 5 μg/ml per 5×10^4 cells at various time points (15, 30, 60, and 120 min) Nuclear protein fractions were assayed for NF-κB while cytoplasmic proteins fractions were assayed for both NF-κB and IκB-α. HDAC was used as a nuclear protein loading control and actin was used as a cytoplasmic protein loading control.
For NF-KB nuclear translocation western blots, cytoplasmic and nuclear protein extracts were prepared from HEK-BLUE™-4, HEK293, and RAW264.7 cells (2×10^6 cells) using NE-PER, nuclear and cytoplasmic extraction reagent kit (PIERCE, Rockford, Ill.). The manufacturer's protocol was followed to separate cytoplasmic and nuclear fractions. Nuclear and cytoplasmic lysates (10 μg protein) were subjected to 12% SDS-PAGE under reducing conditions (presence of β-mercaptoethanol). […] After four washes with TBST and one wash with TBS, membranes were developed by ECL (Pierce) and detected on HyBlot CL™ autoradiography film (Denville Scientific, Inc, Metuchen, N.J.). […]

| Substance | TLR-4 stimulation and NF-κB activation (alkaline phosphatase secretion, absorbance 630 nm) (TLR-4) | secretion of inflammatory cytokines and chemokines (IDV, qualitative) (RAW264.7 cells) | nuclear NF-κB (NF-κB [1]; 5 μg/ml, 15, 30, 60, 120 min) | cytoplasmic NF-κB (NF-κB [1]; 5 μg/ml, 15-120 min) | degradation of cytoplasmic IκB-α (NF-κB [1]; 5 μg/ml, 15-120 min) | cytoplasmic IκB-α and NF-κB (NF-κB [2]) | nuclear localization of NF-κB (NF-κB [2]) | X-15 specific antibody response in serum (X-15 specific antibodies) | NF-κB nuclear localization (immunofluorescence, DAPI merge) (NF-κB [3]) | NF-κB nuclear translocation (NF-κB [4]) |
| --- | --- | --- | --- | --- | --- | --- | --- | --- | --- | --- |
| GLQQVLL [RS04, Gly Leu Gln Gln Val Leu Leu] | considered as TLR-4 stimulating and hence activators of NF-κB |  |  |  |  |  |  |  |  |  |
| APPHALS [RS09, Ala Pro Pro His Ala Leu Ser] | considered as positive for TLR-4 stimulation and NF-κB activation | capable of inducing secretion of inflammatory cytokines and chemokines | increased during the indicated times of 15, 30, 60, and 120 min | Concentrations of cytoplasmic NF-κB also decrease | as nuclear translocation of NF-κB increases over time, so too does the degradation of IKB-α | simultaneous decrease of cytoplasmic IKB-a and NF-KB | increased nuclear localization of NF-κB | significantly enhanced the X-15 specific antibody response on day 28; also recorded: produced a robust X-15 antibody response in vivo | nuclear localization of NF-κB was observed | do not activate the non-TLR-4 expressing HEK293 cells; also recorded: did not result in nuclear translocation |
